PubChem BioAssay AID1259424 | University of Nebraska Medical Center – 2018
Here is a random part of about 14,000 deposited reagents. 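Higher correlation or smaller distance means closer resemblance to KSR1 loss; control wells, including KSR1 knockdowns, recur on many plates.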 Reagent sequences are not shown. Not given: the time to read-out.

- Aim: 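Rank knockdowns across the genome by resemblance to the KSR1 depletion profile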 (primary screen)
- System: human HCT116 colon cancer cells
- Reagents: siRNA pool against human genes, 50 nM
- Measurement: 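Log2 levels of six mRNAs (branched-DNA multiplex), adjusted by two reference genes and the non-targeting median, then scored against the average KSR1 knockdown pattern as Pearson r and euclidean distance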
- Direction: mean correlation with KSR1 profile and KSR1 correlation: higher = expression change more like KSR1 knockdown; mean distance from KSR1 profile: higher = expression change less like KSR1 knockdown

Target gene | PubChem SID | mean correlation with KSR1 profile | mean distance from KSR1 profile | KSR1 correlation, replicate 1 | KSR1 correlation, replicate 2 | KSR1 correlation, replicate 3
DNAJB5 (DnaJ heat shock protein family (Hsp40) member B5) | SID363998188 | 0.221 | 1.3 | 0.368 | -0.105 | 0.0912
PBX4 (PBX homeobox 4) | SID364003344 | 0.503 | 1.23 | 0.715 | 0.269 | 0.533
HECW2 | SID364001810 | -0.876 | 4.37 | -0.835 | -0.742 | -0.752
CHI3L1 (chitinase 3 like 1) | SID363992560 | 0.023 | 1.59 | -0.04 | 0.288 | -0.173
CASZ1 (castor zinc finger 1) | SID364000510 | -0.266 | 1.57 | 0.0416 | -0.616 | -0.271
ETV7 (ETS variant transcription factor 7) | SID363999902 | 0.555 | 1.67 | 0.724 | 0.651 | 0.398
NOL4 (nucleolar protein 4) | SID363994851 | -0.53 | 1.72 | -0.557 | -0.312 | -0.469
KCNF1 | SID363993436 | -0.418 | 2.52 | -0.406 | -0.521 | -0.0468
SERPINA4 (serpin family A member 4) | SID363997040 | -0.0429 | 1.8 | -0.371 | 0.0445 | 0.231
COLEC12 (collectin subfamily member 12) | SID364003433 | 0.598 | 1.39 | 0.263 | 0.685 | 0.695
USP9X (ubiquitin specific peptidase 9 X-linked) | SID363995618 | 0.158 | 1.35 | 0.119 | 0.024 | 0.256
KLF5 (KLF transcription factor 5) | SID363992951 | -0.0497 | 1.64 | 0.571 | 0.0717 | -0.338
XPNPEP3 (X-prolyl aminopeptidase 3) | SID364002326 | -0.0344 | 2.46 | -0.169 | 0.0347 | -0.105
KLHL36 (kelch like family member 36) | SID364003012 | 0.205 | 2.19 | 0.28 | 0.166 | 0.19
SLITRK2 (SLIT and NTRK like family member 2) | SID364004040 | 0.839 | 0.949 | 0.783 | 0.659 | 0.848
SOX30 (SRY-box transcription factor 30) | SID364004912 | -0.177 | 2.02 | -0.269 | -0.0638 | -0.213
ABL2 (ABL proto-oncogene 2, non-receptor tyrosine kinase) | SID363996085 | 0.723 | 1.81 | 0.755 | 0.626 | 0.206
SMPD1 (sphingomyelin phosphodiesterase 1) | SID363991866 | 0.354 | 2.62 | 0.265 | 0.4 | 0.379
PARP9 (poly(ADP-ribose) polymerase family member 9) | SID364003641 | 0.358 | 1.74 | 0.258 | 0.345 | -0.0726
YTHDF2 (YTH N6-methyladenosine RNA binding protein F2) | SID363999987 | 0.565 | 2.9 | 0.341 | 0.778 | 0.596
LEPR (leptin receptor) | SID363993501 | 0.193 | 1.48 | -0.0553 | 0.359 | 0.151
THUMPD2 (THUMP domain 2 tRNA and snRNA guanosine methyltransferase) | SID364003355 | 0.123 | 1.99 | -0.213 | 0.112 | 0.321
FGFRL1 (fibroblast growth factor receptor like 1) | SID364002217 | -0.339 | 2.17 | -0.201 | -0.39 | 0.0082
ALAS2 (5'-aminolevulinate synthase 2) | SID363991371 | 0.184 | 2.58 | 0.486 | 0.455 | -0.322
RIOK2 (RIO kinase 2) | SID364000991 | -0.353 | 2.37 | -0.498 | -0.175 | -0.253
PRSS21 (serine protease 21) | SID363997566 | 0.243 | 3.9 | 0.473 | 0.101 | 0.206
ADSS1 (adenylosuccinate synthase 1) | SID364004713 | 0.0421 | 1.84 | 0.241 | -0.0241 | -0.00658
MOCS1 (molybdenum cofactor synthesis 1) | SID363996809 | -0.00262 | 2.46 | -0.15 | 0.104 | -0.0593
ASF1A (anti-silencing function 1A histone chaperone) | SID363998562 | 0.103 | 1.84 | 0.216 | 0.0725 | 0.0935
UBASH3B (ubiquitin associated and SH3 domain containing B) | SID364004246 | 0.964 | 2.71 | 0.884 | 0.944 | 0.895
RHOH (ras homolog family member H) | SID363995302 | 0.798 | 0.823 | 0.758 | 0.897 | 0.637
ARHGEF6 (Rac/Cdc42 guanine nucleotide exchange factor 6) | SID363995792 | -0.418 | 1.3 | -0.404 | -0.221 | -0.538
MCM3AP | SID363994964 | 0.669 | 1.8 | 0.771 | 0.339 | 0.653
ARL17A (ARF like GTPase 17A) | SID364000252 | -0.436 | 3.24 | -0.692 | -0.311 | -0.0882

In a second layout: entries from further up.
| Target gene | PubChem SID | mean correlation with KSR1 profile | mean distance from KSR1 profile | KSR1 correlation, replicate 1 | KSR1 correlation, replicate 2 | KSR1 correlation, replicate 3 |
| --- | --- | --- | --- | --- | --- | --- |
| YTHDF2 (YTH N6-methyladenosine RNA binding protein F2) | SID363999987 | 0.565 | 2.9 | 0.341 | 0.778 | 0.596 |
| LEPR (leptin receptor) | SID363993501 | 0.193 | 1.48 | -0.0553 | 0.359 | 0.151 |
| THUMPD2 (THUMP domain 2 tRNA and snRNA guanosine methyltransferase) | SID364003355 | 0.123 | 1.99 | -0.213 | 0.112 | 0.321 |
| FGFRL1 (fibroblast growth factor receptor like 1) | SID364002217 | -0.339 | 2.17 | -0.201 | -0.39 | 0.0082 |
| ALAS2 (5'-aminolevulinate synthase 2) | SID363991371 | 0.184 | 2.58 | 0.486 | 0.455 | -0.322 |
